# Laboratory results from the supplement of paper PMC8728848.
# Some of the results follow.
# B1: Nc3LysM-2 (protein)
# chain: AHVLQARQSVSCDFATAANTGDTCASFAAAWGITEAAFAKLNPGVSCPGNLIAGSEYCVIGTVSTGAPTTTKAATTSTTPPTTTTTTKATTLSTSTTSVSPTGPSPQMPSITSTCNKFYQVQSGDGCWSIEQAQGVSASDFMAWNKAVDAQCDNLWLGYYVCVGVKGGSSPPPTTTTKPASSSAPTPQMPNTVSNCKKFHKVVSGDGCWAIEQAAGISASDFAKWNPYVDAACDNLWLGYYVCIGV
# Assays:
# Experiment in all cases: glycan array binding signal (z-score within array); higher = stronger binding
# Settings in all cases: glycan notation: IUPAC condensed, linker removed
# Gal(b1-4)Glc = target: Gal(b1-4)Glc
# Method in brief: (§1)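 Glycan array data came from 3228 arrays in the Consortium for Functional Glycomics database, and only arrays with an available protein sequence were kept. Glycan names were put into IUPAC-condensed notation, and columns mapping to the same glycan were averaged. The binding signal is a within-array Z-score, averaged across arrays of one protein sequence run at different concentrations or buffers and across linkers. A negative Z-score can be read as non-binding.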
# Gal(b1-4)Glc6S = target: Gal(b1-4)Glc6S
# Method in brief: as §1
# Gal(b1-4)GlcNAc = target: Gal(b1-4)GlcNAc
# Method in brief: as §1
# [1] = target: Gal(b1-4)GlcNAc(a1-6)Gal(b1-4)GlcNAc
# Method in brief: as §1
# Gal(b1-4)GlcNAc(b1-2)Man = target: Gal(b1-4)GlcNAc(b1-2)Man
# Method in brief: as §1
# [2] = target: Gal(b1-4)GlcNAc(b1-2)Man(a1-3)Man(b1-4)GlcNAc(b1-4)GlcNAc
# Method in brief: as §1
# [3] = target: Gal(b1-4)GlcNAc(b1-2)Man(a1-3)[Gal(b1-4)GlcNAc(b1-2)Man(a1-6)]Man(b1-4)GlcNAc(b1-4)GlcNAc
# Method in brief: as §1
# [4] = target: Gal(b1-4)GlcNAc(b1-2)Man(a1-3)[Gal(b1-4)GlcNAc(b1-2)Man(a1-6)]Man(b1-4)GlcNAc(b1-4)[Fuc(a1-6)]GlcNAc
# Method in brief: as §1
# [5] = target: Gal(b1-4)GlcNAc(b1-2)Man(a1-3)[Gal(b1-4)GlcNAc(b1-2)Man(a1-6)][Gal(b1-4)GlcNAc(b1-4)]Man(b1-4)GlcNAc(b1-4)[Fuc(a1-6)]GlcNAc
# Method in brief: as §1
# [6] = target: Gal(b1-4)GlcNAc(b1-2)Man(a1-3)[Gal(b1-4)GlcNAc(b1-2)Man(a1-6)][GlcNAc(b1-4)]Man(b1-4)GlcNAc(b1-4)[Fuc(a1-6)]GlcNAc
# Method in brief: as §1
# [7] = target: Gal(b1-4)GlcNAc(b1-2)Man(a1-3)[GlcNAc(b1-2)Man(a1-6)]Man(b1-4)GlcNAc(b1-4)GlcNAc
# Method in brief: as §1
# [8] = target: Gal(b1-4)GlcNAc(b1-2)Man(a1-3)[GlcNAc(b1-4)][Gal(b1-4)GlcNAc(b1-2)Man(a1-6)]Man(b1-4)GlcNAc(b1-4)GlcNAc
# Method in brief: as §1
# [9] = target: Gal(b1-4)GlcNAc(b1-2)Man(a1-3)[Man(a1-6)]Man(b1-4)GlcNAc(b1-4)GlcNAc
# Method in brief: as §1
# [10] = target: Gal(b1-4)GlcNAc(b1-2)Man(a1-6)Man(b1-4)GlcNAc(b1-4)GlcNAc
# Method in brief: as §1
# [11] = target: Gal(b1-4)GlcNAc(b1-2)Man(a1-6)[GlcNAc(b1-2)Man(a1-3)]Man(b1-4)GlcNAc(b1-4)GlcNAc
# Method in brief: as §1
# [12] = target: Gal(b1-4)GlcNAc(b1-2)Man(a1-6)[Man(a1-3)]Man(b1-4)GlcNAc(b1-4)GlcNAc
# Method in brief: as §1
# [13] = target: Gal(b1-4)GlcNAc(b1-2)[Gal(b1-4)GlcNAc(b1-4)]Man(a1-3)[Gal(b1-4)GlcNAc(b1-2)Man(a1-6)]Man(b1-4)GlcNAc(b1-4)GlcNAc
# Method in brief: as §1
# [14] = target: Gal(b1-4)GlcNAc(b1-2)[Gal(b1-4)GlcNAc(b1-4)]Man(a1-3)[Gal(b1-4)GlcNAc(b1-2)[Gal(b1-4)GlcNAc(b1-6)]Man(a1-6)]Man(b1-4)GlcNAc(b1-4)GlcNAc
# Method in brief: as §1
# [15] = target: Gal(b1-4)GlcNAc(b1-2)[Gal(b1-4)GlcNAc(b1-4)]Man(a1-3)[GlcNAc(b1-4)][Gal(b1-4)GlcNAc(b1-2)Man(a1-6)]Man(b1-4)GlcNAc(b1-4)GlcNAc
# Method in brief: as §1
# [16] = target: Gal(b1-4)GlcNAc(b1-2)[Gal(b1-4)GlcNAc(b1-4)]Man(a1-3)[GlcNAc(b1-4)][Gal(b1-4)GlcNAc(b1-2)[Gal(b1-4)GlcNAc(b1-6)]Man(a1-6)]Man(b1-4)GlcNAc(b1-4)GlcNAc
# Method in brief: as §1
# [17] = target: Gal(b1-4)GlcNAc(b1-2)[Gal(b1-4)GlcNAc(b1-6)]Man(a1-6)[Gal(b1-4)GlcNAc(b1-2)Man(a1-3)]Man(b1-4)GlcNAc(b1-4)GlcNAc
# Method in brief: as §1
# [18] = target: Gal(b1-4)GlcNAc(b1-2)[Gal(b1-4)GlcNAc(b1-6)]Man(a1-6)[Gal(b1-4)GlcNAc(b1-2)Man(a1-3)]Man(b1-4)GlcNAc(b1-4)[Fuc(a1-6)]GlcNAc
# Method in brief: as §1
# [19] = target: Gal(b1-4)GlcNAc(b1-2)[Gal(b1-4)GlcNAc(b1-6)]Man(a1-6)[GlcNAc(b1-4)][Gal(b1-4)GlcNAc(b1-2)Man(a1-3)]Man(b1-4)GlcNAc(b1-4)GlcNAc
# Method in brief: as §1
# [20] = target: Gal(b1-4)GlcNAc(b1-2)[Gal(b1-4)GlcNAc(b1-6)]Man(a1-6)[GlcNAc(b1-4)][Gal(b1-4)GlcNAc(b1-2)[Gal(b1-4)GlcNAc(b1-4)]Man(a1-3)]Man(b1-4)GlcNAc(b1-4)[Fuc(a1-6)]GlcNAc
# Method in brief: as §1
# [21] = target: Gal(b1-4)GlcNAc(b1-3)Gal(b1-3)GalNAc
# Method in brief: as §1
# [22] = target: Gal(b1-4)GlcNAc(b1-3)Gal(b1-3)GlcNAc
# Method in brief: as §1
# [23] = target: Gal(b1-4)GlcNAc(b1-3)Gal(b1-4)Glc
# Method in brief: as §1
# [24] = target: Gal(b1-4)GlcNAc(b1-3)Gal(b1-4)GlcNAc
# Method in brief: as §1
# [25] = target: Gal(b1-4)GlcNAc(b1-3)Gal(b1-4)GlcNAc(b1-2)Man(a1-3)[Gal(b1-4)GlcNAc(b1-3)Gal(b1-4)GlcNAc(b1-2)Man(a1-6)]Man(b1-4)GlcNAc(b1-4)GlcNAc
# Method in brief: as §1
# [26] = target: Gal(b1-4)GlcNAc(b1-3)Gal(b1-4)GlcNAc(b1-2)Man(a1-3)[Gal(b1-4)GlcNAc(b1-3)Gal(b1-4)GlcNAc(b1-2)Man(a1-6)]Man(b1-4)GlcNAc(b1-4)[Fuc(a1-6)]GlcNAc
# Method in brief: as §1
# [27] = target: Gal(b1-4)GlcNAc(b1-3)Gal(b1-4)GlcNAc(b1-2)[Gal(b1-4)GlcNAc(b1-3)Gal(b1-4)GlcNAc(b1-6)]Man(a1-6)[Gal(b1-4)GlcNAc(b1-3)Gal(b1-4)GlcNAc(b1-2)Man(a1-3)]Man(b1-4)GlcNAc(b1-4)GlcNAc
# Method in brief: as §1
# [28] = target: Gal(b1-4)GlcNAc(b1-3)Gal(b1-4)GlcNAc(b1-2)[Gal(b1-4)GlcNAc(b1-3)Gal(b1-4)GlcNAc(b1-6)]Man(a1-6)[Gal(b1-4)GlcNAc(b1-3)Gal(b1-4)GlcNAc(b1-2)Man(a1-3)]Man(b1-4)GlcNAc(b1-4)[Fuc(a1-6)]GlcNAc
# Method in brief: as §1
# [29] = target: Gal(b1-4)GlcNAc(b1-3)Gal(b1-4)GlcNAc(b1-3)Gal(b1-4)GlcNAc
# Method in brief: as §1
# [30] = target: Gal(b1-4)GlcNAc(b1-3)Gal(b1-4)GlcNAc(b1-3)Gal(b1-4)GlcNAc(b1-2)Man(a1-3)[Gal(b1-4)GlcNAc(b1-3)Gal(b1-4)GlcNAc(b1-3)Gal(b1-4)GlcNAc(b1-2)Man(a1-6)]Man(b1-4)GlcNAc(b1-4)GlcNAc
# Method in brief: as §1
# [31] = target: Gal(b1-4)GlcNAc(b1-3)Gal(b1-4)GlcNAc(b1-3)Gal(b1-4)GlcNAc(b1-2)Man(a1-3)[Gal(b1-4)GlcNAc(b1-3)Gal(b1-4)GlcNAc(b1-3)Gal(b1-4)GlcNAc(b1-2)Man(a1-6)]Man(b1-4)GlcNAc(b1-4)[Fuc(a1-6)]GlcNAc
# Method in brief: as §1
# [32] = target: Gal(b1-4)GlcNAc(b1-3)Gal(b1-4)GlcNAc(b1-3)Gal(b1-4)GlcNAc(b1-2)[Gal(b1-4)GlcNAc(b1-3)Gal(b1-4)GlcNAc(b1-3)Gal(b1-4)GlcNAc(b1-6)]Man(a1-6)[Gal(b1-4)GlcNAc(b1-3)Gal(b1-4)GlcNAc(b1-3)Gal(b1-4)GlcNAc(b1-2)Man(a1-3)]Man(b1-4)GlcNAc(b1-4)[Fuc(a1-6)]GlcNAc
# Method in brief: as §1
# [33] = target: Gal(b1-4)GlcNAc(b1-3)Gal(b1-4)GlcNAc(b1-3)Gal(b1-4)GlcNAc(b1-3)Gal(b1-4)GlcNAc(b1-2)Man(a1-3)[Gal(b1-4)GlcNAc(b1-3)Gal(b1-4)GlcNAc(b1-3)Gal(b1-4)GlcNAc(b1-3)Gal(b1-4)GlcNAc(b1-2)Man(a1-6)]Man(b1-4)GlcNAc(b1-4)GlcNAc
# Method in brief: as §1
binder,measurement,setting,value
B1,glycan array binding signal (z-score),Gal(b1-4)Glc,-0.252
same,glycan array binding signal (z-score),Gal(b1-4)Glc6S,-0.01
same,glycan array binding signal (z-score),Gal(b1-4)GlcNAc,-0.568
same,glycan array binding signal (z-score),[1],0.566
same,glycan array binding signal (z-score),Gal(b1-4)GlcNAc(b1-2)Man,-0.756
same,glycan array binding signal (z-score),[2],-0.987
same,glycan array binding signal (z-score),[3],0.482
same,glycan array binding signal (z-score),[4],0.244
same,glycan array binding signal (z-score),[5],0.159
same,glycan array binding signal (z-score),[6],-1.48
same,glycan array binding signal (z-score),[7],-0.6
same,glycan array binding signal (z-score),[8],0.099
same,glycan array binding signal (z-score),[9],-1.08
same,glycan array binding signal (z-score),[10],-0.011
same,glycan array binding signal (z-score),[11],-0.885
same,glycan array binding signal (z-score),[12],1.11
same,glycan array binding signal (z-score),[13],0.717
same,glycan array binding signal (z-score),[14],-0.934
same,glycan array binding signal (z-score),[15],-1.1
same,glycan array binding signal (z-score),[16],-0.14
same,glycan array binding signal (z-score),[17],0.055
same,glycan array binding signal (z-score),[18],-1.32
same,glycan array binding signal (z-score),[19],-0.615
same,glycan array binding signal (z-score),[20],-0.348
same,glycan array binding signal (z-score),[21],-1.18
same,glycan array binding signal (z-score),[22],0.13
same,glycan array binding signal (z-score),[23],0.628
same,glycan array binding signal (z-score),[24],-0.972
same,glycan array binding signal (z-score),[25],0.414
same,glycan array binding signal (z-score),[26],1.14
same,glycan array binding signal (z-score),[27],-0.122
same,glycan array binding signal (z-score),[28],1.05
same,glycan array binding signal (z-score),[29],0.011
same,glycan array binding signal (z-score),[30],1.25
same,glycan array binding signal (z-score),[31],2.69
same,glycan array binding signal (z-score),[32],5.8
same,glycan array binding signal (z-score),[33],1

# Some of the entries so far, with tabs.
binder	measurement	setting	value
B1	glycan array binding signal (z-score)	[17]	0.055
same	glycan array binding signal (z-score)	[30]	1.25
